Consider one compound from patent US20080014272A1, “Compositions and Methods for Treatment of Chronic Pain Conditions” (priority 2006, published 2008).

The nature of this test: Monoiodoacetamide (MIA)-induced osteoarthritis in rats, hind paw weight distribution. The conditions noted are these: oral gavage (PO), Day 14 post MIA injection, 1 and 2 hours post-administration; bicifadine 5, 10, 20, 40 or 60 mg/kg, morphine 60 mg/kg; FIG. 1. The format is in vivo, Male Wistar rats. Here is the method:
Animals were fed standard rat chow with water available ad libitum.
The rats were anesthetized with 5% volume/volume (“v/v”) isoflurane gas and maintained with 2% v/v isoflurane gas. […] MIA was dissolved in physiologic saline and administered in a volume of 50 μL. The contralateral control knee was injected with 50 μL of physiologic saline. Administration of isoflurane gas was discontinued, and the rats became fully conscious about 5 minutes later.
Shifts in hind paw weight distribution from the right to the left hind paws supporting the right (arthritic) and the left (contralateral control) hind leg knee joints were utilized as an index of joint pain and as a measure of compound efficacy. An incapacitance tester (Model 2KG, Linton Instrumentation, UK) was employed for determination of hind paw weight distribution.
The acute dosing paradigm used herein relates to osteoarthritis signs such as mobility and joint function and osteoarthritis symptoms such as joint pain.

With `CN1CC[C@]23c4c5ccc(O)c4O[C@H]2[C@@H](O)C=C[C@H]3[C@H]1C5` [morphine, reference compound], the “Effect on osteoarthritis-related pain (change in hind paw weight distribution)” value is “significantly reduced the pain”.
